Values as published with doi:10.1371/journal.pone.0140310, rounded.

Drug key:
AS-252424: O=C1NC(=O)/C(=C/c2ccc(-c3ccc(F)cc3O)o2)S1 at 5 µM
fludarabine: Nc1nc(F)nc2c1ncn2[C@@H]1O[C@H](CO)[C@@H](O)[C@@H]1O at 1 µM
cisplatin: N.N.[Cl][Pt][Cl] at 8 µM
STA-4783: CN(NC(=O)CC(=O)NN(C)C(=S)c1ccccc1)C(=S)c1ccccc1 at 0.03 µM
vatalanib: Clc1ccc(Nc2nnc(Cc3ccncc3)c3ccccc23)cc1 at 10 µM
darinaparsin: C[As](C)SC[C@H](NC(=O)CC[C@H](N)C(=O)O)C(=O)NCC(=O)O at 2 µM
nilotinib: Cc1cn(-c2cc(NC(=O)c3ccc(C)c(Nc4nccc(-c5cccnc5)n4)c3)cc(C(F)(F)F)c2)cn1 at 1 µM
JZL184: O=C(Oc1ccc([N+](=O)[O-])cc1)N1CCC(C(O)(c2ccc3c(c2)OCO3)c2ccc3c(c2)OCO3)CC1 at 5 µM
KU-0063794: COc1ccc(-c2ccc3c(N4CCOCC4)nc(N4C[C@@H](C)O[C@@H](C)C4)nc3n2)cc1CO at 0.1 µM
SU6656: CN(C)S(=O)(=O)c1ccc2c(c1)/C(=C/c1cc3c([nH]1)CCCC3)C(=O)N2 at 2 µM
midostaurin: CO[C@@H]1[C@H](N(C)C(=O)c2ccccc2)C[C@H]2O[C@]1(C)n1c3ccccc3c3c4c(c5c6ccccc6n2c5c31)C(=O)NC4 at 0.4 µM

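Human melanoma cell lines in 1,536-well plates were treated with a pair of drugs for 72 h, then fixed, stained and imaged. Values are the number of DAPI-stained nuclei as a percentage of the DMSO control: 100 is no effect, lower means fewer cells. Concentrations were fixed for each drug; these are the higher of two levels. The file gives one value for each pair and line, without errors, so small differences may be noise.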 An unselected part of the screen is shown.

{"pair": "JZL184 + midostaurin", "WM3619": 56.1, "C32": 60.1, "COLO 800": 57.9, "COLO 829": 69.9, "COLO 792": 38.7, "WM451Lu": 52.0}
{"pair": "STA-4783 + cisplatin", "WM3619": 113, "C32": 81.6, "COLO 800": 115, "COLO 829": 100, "COLO 792": 122, "WM451Lu": 86.3}
{"pair": "cisplatin + SU6656", "WM3619": 73.3, "C32": 97.9, "COLO 800": 66.9, "COLO 829": 78.2, "COLO 792": 88.2, "WM451Lu": 101}
{"pair": "fludarabine + nilotinib", "WM3619": 82.5, "C32": 80.2, "COLO 800": 95.0, "COLO 829": 101, "COLO 792": 60.3, "WM451Lu": 97.3}
{"pair": "darinaparsin + SU6656", "WM3619": 83.2, "C32": 79.1, "COLO 800": 11.1, "COLO 829": 64.2, "COLO 792": 67.7, "WM451Lu": 62.2}
{"pair": "STA-4783 + fludarabine", "WM3619": 10.3, "C32": 19.9, "COLO 800": 28.3, "COLO 829": 61.8, "COLO 792": 21.8, "WM451Lu": 76.2}
{"pair": "JZL184 + SU6656", "WM3619": 51.0, "C32": 80.4, "COLO 800": 50.4, "COLO 829": 74.9, "COLO 792": 53.7, "WM451Lu": 62.0}
{"pair": "JZL184 + fludarabine", "WM3619": 58.5, "C32": 95.3, "COLO 800": 88.7, "COLO 829": 81.7, "COLO 792": 75.7, "WM451Lu": 92.0}
{"pair": "AS-252424 + midostaurin", "WM3619": 65.7, "C32": 87.9, "COLO 800": 45.1, "COLO 829": 94.7, "COLO 792": 67.2, "WM451Lu": 72.6}
{"pair": "vatalanib + fludarabine", "WM3619": 78.0, "C32": 83.7, "COLO 800": 53.9, "COLO 829": 55.8, "COLO 792": 52.3, "WM451Lu": 79.3}
{"pair": "cisplatin + KU-0063794", "WM3619": 74.0, "C32": 82.8, "COLO 800": 84.2, "COLO 829": 66.8, "COLO 792": 63.3, "WM451Lu": 83.9}
{"pair": "midostaurin + SU6656", "WM3619": 63.7, "C32": 74.6, "COLO 800": 34.7, "COLO 829": 61.4, "COLO 792": 49.2, "WM451Lu": 45.7}
{"pair": "darinaparsin + vatalanib", "WM3619": 55.3, "C32": 99.6, "COLO 800": 40.0, "COLO 829": 61.0, "COLO 792": 58.7, "WM451Lu": 70.2}
{"pair": "JZL184 + nilotinib", "WM3619": 68.0, "C32": 90.1, "COLO 800": 94.7, "COLO 829": 85.2, "COLO 792": 96.5, "WM451Lu": 104}
{"pair": "cisplatin + vatalanib", "WM3619": 88.0, "C32": 100, "COLO 800": 78.2, "COLO 829": 67.0, "COLO 792": 75.0, "WM451Lu": 81.9}
{"pair": "AS-252424 + nilotinib", "WM3619": 78.6, "C32": 100, "COLO 800": 85.4, "COLO 829": 94.1, "COLO 792": 81.7, "WM451Lu": 103}
{"pair": "cisplatin + darinaparsin", "WM3619": 74.8, "C32": 94.4, "COLO 800": 190, "COLO 829": 93.7, "COLO 792": 79.0, "WM451Lu": 88.2}
{"pair": "darinaparsin + fludarabine", "WM3619": 99.6, "C32": 83.3, "COLO 800": 60.5, "COLO 829": 82.1, "COLO 792": 67.0, "WM451Lu": 73.0}
{"pair": "fludarabine + midostaurin", "WM3619": 86.9, "C32": 80.7, "COLO 800": 46.6, "COLO 829": 68.6, "COLO 792": 39.7, "WM451Lu": 96.2}
{"pair": "KU-0063794 + SU6656", "WM3619": 54.2, "C32": 72.5, "COLO 800": 65.9, "COLO 829": 73.0, "COLO 792": 64.7, "WM451Lu": 69.0}
{"pair": "fludarabine + cisplatin", "WM3619": 82.5, "C32": 78.3, "COLO 800": 87.5, "COLO 829": 99.7, "COLO 792": 51.4, "WM451Lu": 91.0}
{"pair": "AS-252424 + vatalanib", "WM3619": 53.3, "C32": 96.2, "COLO 800": 46.9, "COLO 829": 49.5, "COLO 792": 74.2, "WM451Lu": 65.8}
{"pair": "midostaurin + darinaparsin", "WM3619": 70.5, "C32": 89.4, "COLO 800": 30.2, "COLO 829": 58.2, "COLO 792": 59.6, "WM451Lu": 55.7}
{"pair": "STA-4783 + SU6656", "WM3619": 3.4, "C32": 24.2, "COLO 800": 8.8, "COLO 829": 53.7, "COLO 792": 18.1, "WM451Lu": 66.4}
{"pair": "nilotinib + STA-4783", "WM3619": 8.0, "C32": 23.5, "COLO 800": 21.8, "COLO 829": 55.8, "COLO 792": 13.8, "WM451Lu": 78.7}
{"pair": "midostaurin + cisplatin", "WM3619": 52.3, "C32": 65.4, "COLO 800": 40.0, "COLO 829": 54.1, "COLO 792": 55.6, "WM451Lu": 59.0}
{"pair": "KU-0063794 + JZL184", "WM3619": 74.2, "C32": 93.6, "COLO 800": 95.7, "COLO 829": 123, "COLO 792": 85.9, "WM451Lu": 99.9}
{"pair": "nilotinib + cisplatin", "WM3619": 84.0, "C32": 92.0, "COLO 800": 78.1, "COLO 829": 58.8, "COLO 792": 83.0, "WM451Lu": 92.7}
{"pair": "AS-252424 + cisplatin", "WM3619": 72.0, "C32": 105, "COLO 800": 71.7, "COLO 829": 69.7, "COLO 792": 91.0, "WM451Lu": 81.8}
{"pair": "KU-0063794 + darinaparsin", "WM3619": 44.5, "C32": 99.6, "COLO 800": 60.3, "COLO 829": 85.5, "COLO 792": 81.1, "WM451Lu": 71.6}
{"pair": "midostaurin + nilotinib", "WM3619": 83.9, "C32": 90.3, "COLO 800": 54.9, "COLO 829": 78.0, "COLO 792": 57.0, "WM451Lu": 78.4}
{"pair": "fludarabine + SU6656", "WM3619": 93.7, "C32": 85.9, "COLO 800": 47.2, "COLO 829": 73.7, "COLO 792": 53.2, "WM451Lu": 80.3}
{"pair": "JZL184 + AS-252424", "WM3619": 104, "C32": 109, "COLO 800": 78.4, "COLO 829": 83.7, "COLO 792": 85.1, "WM451Lu": 114}
{"pair": "fludarabine + KU-0063794", "WM3619": 55.7, "C32": 83.2, "COLO 800": 68.7, "COLO 829": 102, "COLO 792": 71.2, "WM451Lu": 79.5}
{"pair": "darinaparsin + STA-4783", "WM3619": 12.3, "C32": 33.2, "COLO 800": 17.6, "COLO 829": 62.4, "COLO 792": 35.7, "WM451Lu": 62.3}
{"pair": "darinaparsin + JZL184", "WM3619": 77.2, "C32": 90.9, "COLO 800": 60.7, "COLO 829": 98.9, "COLO 792": 101, "WM451Lu": 75.5}
{"pair": "vatalanib + JZL184", "WM3619": 74.8, "C32": 102, "COLO 800": 96.0, "COLO 829": 75.4, "COLO 792": 82.3, "WM451Lu": 95.5}
{"pair": "vatalanib + STA-4783", "WM3619": 19.2, "C32": 30.9, "COLO 800": 48.2, "COLO 829": 41.0, "COLO 792": 30.1, "WM451Lu": 73.3}
{"pair": "darinaparsin + nilotinib", "WM3619": 93.9, "C32": 73.7, "COLO 800": 84.1, "COLO 829": 110, "COLO 792": 83.2, "WM451Lu": 87.0}
{"pair": "KU-0063794 + STA-4783", "WM3619": 8.2, "C32": 39.3, "COLO 800": 44.5, "COLO 829": 48.2, "COLO 792": 28.7, "WM451Lu": 92.0}